{"sequences": {"note": "By UniProt entry, the sequences of proteins in these tests, tags left out. Residues count along the entry.", "UniProt D3ZBN3, residues 23-977": "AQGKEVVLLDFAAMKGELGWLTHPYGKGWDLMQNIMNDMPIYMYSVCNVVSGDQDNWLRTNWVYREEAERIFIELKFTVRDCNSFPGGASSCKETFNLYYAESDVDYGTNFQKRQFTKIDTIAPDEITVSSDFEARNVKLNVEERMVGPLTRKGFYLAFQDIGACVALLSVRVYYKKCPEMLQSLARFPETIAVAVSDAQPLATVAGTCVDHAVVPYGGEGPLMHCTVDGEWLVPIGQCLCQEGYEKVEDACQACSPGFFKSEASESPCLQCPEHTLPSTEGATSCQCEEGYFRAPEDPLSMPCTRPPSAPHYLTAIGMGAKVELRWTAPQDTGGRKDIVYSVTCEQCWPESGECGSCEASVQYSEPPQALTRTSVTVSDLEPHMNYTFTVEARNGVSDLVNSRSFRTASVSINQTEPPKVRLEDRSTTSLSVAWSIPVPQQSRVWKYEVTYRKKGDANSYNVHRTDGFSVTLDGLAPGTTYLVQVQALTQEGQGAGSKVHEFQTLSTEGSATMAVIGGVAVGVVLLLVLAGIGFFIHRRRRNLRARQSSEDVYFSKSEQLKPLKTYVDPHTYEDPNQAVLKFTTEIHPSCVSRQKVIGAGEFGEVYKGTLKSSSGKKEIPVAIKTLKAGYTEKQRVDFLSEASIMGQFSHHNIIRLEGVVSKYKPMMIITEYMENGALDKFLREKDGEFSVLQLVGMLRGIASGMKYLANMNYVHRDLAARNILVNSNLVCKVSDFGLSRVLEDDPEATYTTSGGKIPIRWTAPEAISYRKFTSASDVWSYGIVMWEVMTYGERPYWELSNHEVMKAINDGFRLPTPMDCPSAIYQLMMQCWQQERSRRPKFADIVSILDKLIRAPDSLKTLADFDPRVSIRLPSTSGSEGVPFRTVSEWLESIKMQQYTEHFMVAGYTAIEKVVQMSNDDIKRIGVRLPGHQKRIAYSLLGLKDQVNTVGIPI"}, "source": "patent USRE47123", "binders": {"B1": {"name": "murine anti-EphA2 monoclonal antibody 37.3D7 (antibody, V domains shown)", "VH": "QVQLQQPGSELVRPGASVQLSCKASGYSFTSYWMHWVRQRPGQGLQWIGNIYPGTGNTNYDEKFMNKATLTVDTYSSTTYMQLSSLTSEDSAVYYCARWGLVRYFFAMDYWGQGTSVTVSS", "VL": "QIVLTQSPAIMSASLGERVTMTCTVSSSVNSSYLHWYQQKPGSSPKLWIYSTSNLPSGVPARFSGSGSGTSYSLTISTIESEDAATYYCHQYHRSPQFTFGSGTKLEIKR"}}, "key": {"[1]": {"target": "rat EphA2 receptor (rat) (UniProt D3ZBN3)", "test": "FACS, cells over-expressing rat EphA2"}, "[2]": {"target": "rat EphA2 receptor (rat) (UniProt D3ZBN3)", "test": "FACS, 300-19/rat-EphA2 cells (FIG. 4B legend)"}}, "note": "Results are given in words; binding and its absence hold for the method and conditions named. Some entries that bind do so weakly or less than the wild type."}
{"binder": "B1", "values": [{"measurement": "binding", "setting": "[1]", "result": "binds"}, {"measurement": "binding", "setting": "[2]", "result": "binds"}]}
